This is one part of the list.

Sequences of proteins named here, by UniProt entry; tags and fusion partners are left off.
UniProt Q0JBA9, entry or part of it: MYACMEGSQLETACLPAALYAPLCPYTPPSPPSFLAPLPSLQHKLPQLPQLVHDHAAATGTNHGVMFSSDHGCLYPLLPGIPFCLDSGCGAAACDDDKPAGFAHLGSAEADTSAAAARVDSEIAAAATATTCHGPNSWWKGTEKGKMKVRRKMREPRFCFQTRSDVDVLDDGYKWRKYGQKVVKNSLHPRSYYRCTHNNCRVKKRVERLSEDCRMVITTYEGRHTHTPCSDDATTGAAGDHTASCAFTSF

For this assay, the target named is OsWRKY34 (Oryza sativa, UniProt Q0JBA9 1-250). As to the kind of experiment: protein-binding microarray (RPBM); PBS, 2% BSA, 51.3 ng/ul salmon testes DNA, 50 uM zinc acetate, 200 nM TF, 25 C, 1 h; high values mean tight binding. The following applies: protein: recombinant; tags: N-terminal polyhistidine and DsRed monomer fusion (pET32a); label: CyDye5-dUTP incorporated in the synthesized complementary strand; 3' TTTTT single-stranded linker to array surface; dsDNA, one strand shown. In outline: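 Transcription factors were made in E. coli BL21-CodonPlus as N-terminal fusions to a polyhistidine tag and DsRed, then purified on Ni–NTA. After primer extension with Cy5-dUTP and blocking with 2% BSA, a custom Agilent array was exposed for 1 h at 25 °C to 200 nM protein in PBS, 2% BSA, salmon testes DNA and 50 µM zinc acetate. Washed arrays were scanned on an Axon 4000B, and the binding signal is per-feature fluorescence intensity in arbitrary units.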
Turning to “TCTTCTAATCTGGACCATTTTCGACATTCTGAAATTCTGACGGAGTCACCTAGTGCAG”, the binding signal was 8070 fluorescence intensity (a.u.).

As for “GCAATATATTACCATTAATTCCTTGTGTGCACTTCCCCGCCGGAGTCACCTAGTGCAG”, the binding signal was 10600 fluorescence intensity (a.u.). As for “CCTTTTCATGGTGGGCCTAGTTTTGAAAATGCCGGTAGCTCGGAGTCACCTAGTGCAG”, the figure is 8190 fluorescence intensity (a.u.); as for “CGCGCTGCCTTTATAGGCCACTCCCACCACCGCCGCCGCCCGGAGTCACCTAGTGCAG”, 8040 fluorescence intensity (a.u.); as for “ATTTAAGGTGGGACTCATCTCCTTCTTTCTTCTTCAGTCTCGGAGTCACCTAGTGCAG”, 9170 fluorescence intensity (a.u.).

As to “GCTTCTCTTCTTCTTCTTCGCCTCGCCCTTGCCTCGTTCCCGGAGTCACCTAGTGCAG”, the binding signal was 9330 fluorescence intensity (a.u.). In the case of “GCTGAATTTGTGTGCATGTATATCCATCCATTCATCGTTCCGGAGTCACCTAGTGCAG” it was 9460 fluorescence intensity (a.u.); in that of “TTGTACTGTCTACCTACTGGCCACTCTGCAACTGCCATTGCGGAGTCACCTAGTGCAG”, 8210 fluorescence intensity (a.u.).

With “TGCGCTGACTGTTTTTTTACCCCGAAAGCTATCCCATTTCCGGAGTCACCTAGTGCAG”, the binding signal is 10100 fluorescence intensity (a.u.). “CCAAGTCAAAATCATACCTTGCCATGCTCTCCAAGCTACTCGGAGTCACCTAGTGCAG”: the binding signal was 8550 fluorescence intensity (a.u.). In the case of “TCTATCTCCTTTTATCTATATATCTCATTCATTTTTGGTTCGGAGTCACCTAGTGCAG” it was 11000 fluorescence intensity (a.u.); in that of “GCTCCACGTCCCACCGCCCTTGTTGCCTGTCGGTTGCTCGCGGAGTCACCTAGTGCAG”, 11700 fluorescence intensity (a.u.); in that of “TGTCACTGAAACACTTCACCGGATTATTTACTCCACGTCTCGGAGTCACCTAGTGCAG”, 11700 fluorescence intensity (a.u.). Regarding “CGAATGGTCAAACATATGAGAAAAAGTCAACGATGTCATCCGGAGTCACCTAGTGCAG”, the binding signal was 13900 fluorescence intensity (a.u.). In the case of “CCCGCACGAACTCCACAGATATTTCACGGCTTTTCCCCGTCGGAGTCACCTAGTGCAG” it was 11900 fluorescence intensity (a.u.); in that of “ATTTTGTTTACCTTATGTGTTTTTCTATTTATCTCGAATTCGGAGTCACCTAGTGCAG”, 9950 fluorescence intensity (a.u.). As for “GTCTGTTCACTTTGATGCCAAAATTTTGACAGGATTTCTTCGGAGTCACCTAGTGCAG”, the figure is 8180 fluorescence intensity (a.u.); as for “GTCAGTACACACACGCACAAATCATGAATCTATCATTACTCGGAGTCACCTAGTGCAG”, 8780 fluorescence intensity (a.u.).

On to “AGAAAGCCTCATCTCCGGCCCCTCTTCCTCCTTGATTCCGCGGAGTCACCTAGTGCAG”, for which the binding signal is 9330 fluorescence intensity (a.u.). As for “TTTTTTTTTTTGTCGCCGAGTATTCGTCGTCCCCGACGACCGGAGTCACCTAGTGCAG”, the figure is 8280 fluorescence intensity (a.u.); as for “CAACCAAACCCGCCGCTGTATAAATCCGCTCCCATCCGCTCGGAGTCACCTAGTGCAG”, 8880 fluorescence intensity (a.u.). On to “TGGTTCAACACCATCGCTGCACATCTTTTCCAAAATTCCACGGAGTCACCTAGTGCAG”, for which the binding signal is 8760 fluorescence intensity (a.u.). As for “TCGCTCTCTCCACATCGGTCGTGCGGTCGTGCCGCCATCACGGAGTCACCTAGTGCAG”, the binding signal was 8670 fluorescence intensity (a.u.). As for “CTTTCTTGCGTAGGTAATCAACCATCATATTTTTTTTCTTCGGAGTCACCTAGTGCAG”, the figure is 8760 fluorescence intensity (a.u.). Turning to “TCATTTTCGGTTGTCCACTATTTGGCTTTTCTCACTTCCTCGGAGTCACCTAGTGCAG”, the binding signal was 12700 fluorescence intensity (a.u.). “TAGACTTACTCCAATTTTCTCTGATTTCGGCCCAATTTTGCGGAGTCACCTAGTGCAG”: the binding signal was 11000 fluorescence intensity (a.u.). In the case of “GCTTGGTCCGTCGATCTATCACAATTTCTATTCGACGACGCGGAGTCACCTAGTGCAG” it was 9670 fluorescence intensity (a.u.). On to “GGGGCTTGATTTGATTTGGGCGCGTCTCGTGGAGTATCCGCGGAGTCACCTAGTGCAG”, for which the binding signal was 14800 fluorescence intensity (a.u.).

Turning to “GTCGATCAATCGCCGCCGCTTTTCGTGCCCACCACTTGCGCGGAGTCACCTAGTGCAG”, the binding signal is 8740 fluorescence intensity (a.u.). As for “GCATAGTGAATTCGCTGCTCAGTTCCTATTAGCGGTTATACGGAGTCACCTAGTGCAG”, the figure is 9040 fluorescence intensity (a.u.).

Consider “TATGGAATGGGTTTTGTAATTAGTGTATGTTTAATACTCCCGGAGTCACCTAGTGCAG”, for which the binding signal was 8810 fluorescence intensity (a.u.). With “TGCTTGCATTCCGGCGAGTCGCCGCGCGCCGGGCCGGCCGCGGAGTCACCTAGTGCAG”, the binding signal is 8050 fluorescence intensity (a.u.).

Regarding “GGATTGGGATAGAGAGGATTTCTATGAGTTAATTAACTTACGGAGTCACCTAGTGCAG”, the binding signal is 8460 fluorescence intensity (a.u.).

In the case of “TCAGAAATCTTAGTCCTCTTGTTCTTGTTTTCTTCCTTTTCGGAGTCACCTAGTGCAG”, the binding signal is 9880 fluorescence intensity (a.u.). Consider “TTGGCCAACTATCCGGTAATAAATACTACCTCTGTTATATCGGAGTCACCTAGTGCAG”, for which the binding signal is 8250 fluorescence intensity (a.u.).

With “TGCCACCTTGTCTACTTACCTCATCTCATCTCACACCAAACGGAGTCACCTAGTGCAG”, the binding signal is 11100 fluorescence intensity (a.u.). As for “GCAGAGGAATCCGTGGCGATGGGGATGGGGATTCGATGTGCGGAGTCACCTAGTGCAG”, the figure is 8400 fluorescence intensity (a.u.); as for “ATGGCTGGTTTTCACGACACATAACCAACTACTCCCTCCACGGAGTCACCTAGTGCAG”, 8040 fluorescence intensity (a.u.). In the case of “TCAGGTCACAATATTTTCGCACATTTTGAACTTAACGTTTCGGAGTCACCTAGTGCAG” it was 10100 fluorescence intensity (a.u.); in that of “TCATCTCATCCACTCCTCTCCTCGTACGCCTATAAAATCACGGAGTCACCTAGTGCAG”, 8180 fluorescence intensity (a.u.); in that of “ACCTACGTCGTGTCCCCAGTTTGCGCTTCTAGCTCCAATACGGAGTCACCTAGTGCAG”, 8550 fluorescence intensity (a.u.). Regarding “ACCTCTTATTTGACTTTTTCACTATTTTGAAATACGAAAACGGAGTCACCTAGTGCAG”, the binding signal was 9360 fluorescence intensity (a.u.).

(Values after publication PMC7819943, “Rice protein-binding microarrays: a tool to detect cis-acting elements near promoter regions in rice”.)
